Experimental findings from article PMC5688218 are described below.

Amino acid sequences for entries named in this document (tags omitted). Residues count along the entry.
UniProt Q96EQ9: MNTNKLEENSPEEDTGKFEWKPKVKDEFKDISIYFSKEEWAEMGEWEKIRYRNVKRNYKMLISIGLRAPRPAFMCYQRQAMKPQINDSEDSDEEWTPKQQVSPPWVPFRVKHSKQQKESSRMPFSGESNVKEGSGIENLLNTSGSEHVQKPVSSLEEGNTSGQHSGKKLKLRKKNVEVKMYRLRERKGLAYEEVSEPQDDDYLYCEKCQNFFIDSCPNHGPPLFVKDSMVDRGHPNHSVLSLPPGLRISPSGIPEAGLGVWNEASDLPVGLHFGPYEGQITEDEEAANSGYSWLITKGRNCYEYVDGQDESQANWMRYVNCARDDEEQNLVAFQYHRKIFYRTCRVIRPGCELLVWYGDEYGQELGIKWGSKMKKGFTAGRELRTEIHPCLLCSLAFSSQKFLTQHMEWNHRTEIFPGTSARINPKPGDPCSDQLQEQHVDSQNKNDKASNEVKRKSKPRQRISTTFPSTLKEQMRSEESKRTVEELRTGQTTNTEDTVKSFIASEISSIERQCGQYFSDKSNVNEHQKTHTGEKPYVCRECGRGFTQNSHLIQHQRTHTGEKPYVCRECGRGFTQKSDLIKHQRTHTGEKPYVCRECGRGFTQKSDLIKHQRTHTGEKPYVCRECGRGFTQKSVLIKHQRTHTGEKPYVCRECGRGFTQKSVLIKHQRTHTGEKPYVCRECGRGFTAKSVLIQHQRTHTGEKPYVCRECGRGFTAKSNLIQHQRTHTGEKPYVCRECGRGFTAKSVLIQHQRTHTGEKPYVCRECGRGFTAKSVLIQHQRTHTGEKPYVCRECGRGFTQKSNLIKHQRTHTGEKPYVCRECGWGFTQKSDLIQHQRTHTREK
UniProt P21506, residues 14-85: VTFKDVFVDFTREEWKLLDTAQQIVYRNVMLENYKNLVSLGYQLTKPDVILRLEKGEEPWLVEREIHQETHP
UniProt Q9CWW7: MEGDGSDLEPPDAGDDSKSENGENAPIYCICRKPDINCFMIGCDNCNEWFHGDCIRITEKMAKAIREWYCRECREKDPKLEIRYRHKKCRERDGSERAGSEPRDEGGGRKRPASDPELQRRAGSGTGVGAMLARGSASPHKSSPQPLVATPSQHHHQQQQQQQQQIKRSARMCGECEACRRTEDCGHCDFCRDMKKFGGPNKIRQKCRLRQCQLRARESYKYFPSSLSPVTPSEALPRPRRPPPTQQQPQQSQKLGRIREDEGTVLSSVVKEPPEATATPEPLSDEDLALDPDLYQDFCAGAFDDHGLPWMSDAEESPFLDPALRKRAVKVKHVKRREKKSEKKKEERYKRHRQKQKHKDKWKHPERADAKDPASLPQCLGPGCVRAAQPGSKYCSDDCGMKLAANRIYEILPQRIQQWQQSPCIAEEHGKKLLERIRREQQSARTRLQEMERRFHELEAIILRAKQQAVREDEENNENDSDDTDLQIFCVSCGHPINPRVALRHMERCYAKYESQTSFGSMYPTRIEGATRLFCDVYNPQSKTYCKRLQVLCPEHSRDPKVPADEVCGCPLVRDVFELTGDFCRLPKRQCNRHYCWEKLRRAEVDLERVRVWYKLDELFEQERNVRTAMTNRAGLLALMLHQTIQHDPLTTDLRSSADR

In experiment [1] the target is mouse PRDM9, full length (Gal4 BD-PRDM9 FL) (mouse) (UniProt Q96EQ9). The experiment can be described thus: two-hybrid; Gal4 AD fusions (Y187) mated with Gal4 BD fusions (AH109); growth of diploids on −LWH and −LWHAd after 3 days at 30 °C, by streaking or spotting; 5 mM 3-AT added to −LWH for self-activating constructs.
The target of experiment [2] is KRAB domain of human KOX1 (Gal4 BD-KOX1 KRAB) (human) (UniProt P21506). Described as above.
Experiment [3] concerns the target CXXC1 in mouse testis extracts (mouse (endogenous in testis)) (UniProt Q9CWW7). The experiment can be described thus: co-IP; mouse testis extracts, various approaches; high salt conditions required for PRDM9 extraction.
The target in experiment [4] is PRDM9 in mouse testis extracts (mouse (endogenous in testis)) (UniProt Q96EQ9). The description is as above.

No constants are given. Whether binding was seen depends on the method and setting. For part of these data: Binding seen in cells or lysates may run through a third protein. Some results given as binding are weak or reduced against the parent protein; the word gives no strength. For part of these data: Tags and fused reporters may be left off the sequences shown.

B1: mouse IFT88, full length (Gal4 AD fusion) (protein, UniProt Q61371 1-824)
chain: MENVHLAPETDEDDLYSGFNDYNPAYDTEELENDTGFQQAVRTSHGRRPPVTAKIPSTAVSRPIATGYGSKTSLTSSMGRPMTGTIQDGVARPMTAVRAAGFSKAALRGSAFDPLGQSRGPAPPLEAKNEDSPEEKIRQLEKKVNELVEESCIANSCGDLKLALEKAKDAGRKERVLVRQREQVTSPENINLDLTYSVLFNLASQYSANEMYAEALNTYQVIVKNKMFSNAGRLKVNMGNIYLKQRNYSKAIKFYRMALDQIPSVHKEMRIKIMQNIGITFIKTGQYSDAINSFEHIMSMAPSLKAGFNLILSCFAIGDREKMKKAFQKLIAVPLEIDEDDKYISPSDDPHTNLLIEAIKNDHLRQMERERKAMAEKYIMTAAKLIAPVIEASFAVGYNWCVEVVKASQYVELANDLEINKAITYLRQKDFNQAVDTLKMFEKKDSRVKSAAATNLSFLYYLENEFAQASSYADLAVNSDRYNPSALTNKGNTVFANGDYEKAAEFYKEALRNDSSCTEALYNIGLTYKKLNRLDEALDSFLKLHAILRNSAQVLCQIANIYELMEDPNQAIEWLMQLISVVPTDSQALSKLGELYDSEGDKSQAFQYYYESYRYFPSNIEVIEWLGAYYIDTQFCEKAIQYFERASLIQPTQVKWQLMVASCFRRSGNYQKALDTYKEIHRKFPENVECLRFLVRLCTDIGLKEVQEYATKLKRLEKMKEMREQRIKSGRDSSGGSRSKREGSAGSDSGQNNSASSKSERLSAKLRALPGTDEPYESSGNKEIDASYVDPLGPQIERPKTAAKKRIDEDDFADEELGDDLLPE
Consider B1, for which the binding result in experiment [1] is “binds”.

B2: mouse FKBP6 85–327 (Gal4 AD fusion) (domain or fragment, UniProt Q91XW8 85-327)
chain: KLGEDITLWGMELGLLSMRKGELARFLFKPAYAYGTLGCPPLIPPNATVLFEIELIDFLDSAESDKFCALSAEQQEQFPLQKVLKVAATEREFGNYLFRQNRFCDAKVRYKRALLLLHRRLATCEEQHLVEPAVLLVLLNLSFVYLKLDRPAMALRYGEQALLIDKRNAKALFRCGQACLLLTEYERARDFLVRAQKEQPCNHDINNELKKLSSHYRDYVDREREMCHRMFAPCGSRSSVGGN
As to B2, the binding entry in experiment [1] is “binds”.

B3: N-terminal fragment of TRIM28 (amino acid residues 1–419), Gal4 AD fusion (domain or fragment, UniProt Q13263 1-419)
chain: MAASAAAASAAAASAASGSPGPGEGSAGGEKRSTAPSAAASASASAAASSPAGGGAEALELLEHCGVCRERLRPEREPRLLPCLHSACSACLGPAAPAAANSSGDGGAAGDGTVVDCPVCKQQCFSKDIVENYFMRDSGSKAATDAQDANQCCTSCEDNAPATSYCVECSEPLCETCVEAHQRVKYTKDHTVRSTGPAKSRDGERTVYCNVHKHEPLVLFCESCDTLTCRDCQLNAHKDHQYQFLEDAVRNQRKLLASLVKRLGDKHATLQKSTKEVRSSIRQVSDVQKRVQVDVKMAILQIMKELNKRGRVLVNDAQKVTEGQQERLERQHWTMTKIQKHQEHILRFASWALESDNNTALLLSKKLIYFQLHRALKMIVDPVEPHGEMKFQWDLNAWTKSAEAFGKIVAERPGTNSTG
On to B3, for which the binding result in experiment [2] is given as “binds”.

B4: IHO1 in mouse testis extracts (protein, UniProt Q6PDM4 1-574)
chain: MNFNVWNVKEMLSIPSGSGITKPSNWNNNQTDCSLSDSQFLFGSQFCPENSETLLPSLDAGACLRHPKQTQQNSVDSEPSIFIKYQAKPQLLGGDTKDESLFSLPLPVGKSKGLSKQFEEKKRRATDQSDSETLHSFVSHFPEVINKLQTSVEKTEENLSSRSQSILDSVETIAKTFQETARVQHDLMVESVRDKGSMEQAILEIQRTCAARQAEFMEMKSTLKNLEVLVVEQTKNLQQFCDNLSQLIVPGILEELKKFTSVPQVAGHLKDSTSQTSPSLTQSLHFTRQEKHPSEEPATWQAQEAPAGNPSTSSQRPGECGVWDEGAESGVFQKAALPTDGLHRGDGHVKNKTVPTYCKNWVMTTRSVSNHFSNLPSQRAGNGQGLMAQGASQRDVSKFEARVKNACPEYGPQSMCSFDSLEQSATEQKGRPCRKRRRGKKQQPQRSKRGGLLDRKQGQTSKAACAFIARHHCPQSPVCDPQGPLICWLTPRSSTKSTCHILGGTGETSQTARAAQGNLVQHSQRSSTDSSSQGDQQINWFSDLSLENLEPPQCKKGGTNLLCDPDFDSSDDNF
On to B4, for which the binding result in experiment [3] and in experiment [4] was “no binding” each time.

B5: mouse CEP70, full length (Gal4 AD fusion) (protein, UniProt Q6IQY5 1-616)
chain: MTEGSQIFLLPISTSDSTKEPLSPVASKAQDPSLLSNRLMIEKQQEEAEWESINGLLMTHGFKPLCLVKGADLRDFIVFDKQSSQKMRQILKTLMEETTRQQSMIRELIETNQQLKSELQLEQNRAAHQEQRANDLQQIMDSVKSKIGELEDESLNRVCQQQNRIKDLQKEYKMLQMKCQQYKKNRMEQEGTIASLQKEIHRLAKEEEERILTQNRVFAHLCRRVPHSVLDKQLLCLIDYYECKLRKLHIQRQFEEDSQSEEKDFTNLGASPNYKGVLMSLQKQLKESKSRIDVLVGEKLSLQKDLENRPTEHELRLYKQQVKKLEKTLKKNIKLQDLIGQKKSDDTEKKDEPSKDSHQQALIEQSYFQVLCSINSIVHNPRAPVIIYKQSKGRAPNGNKDIGQDCGFEHLVPIIEMWVDELTSLKDLYKSLKILSAELVPWHSLKKLDEKEGVKVGDLLFMVDTMLEEVENQKETSSTPNSQTLQAIVSHFQKLFDVQSLNGVFPRMNEVYTRLGEMNNAVRNLQELLELDSSSSLCVVVSTVGKLCEIINKDVSEQVKQVLGPEDLQSIIKKLEEHEEFFPAFQAFANDLLEILEIDDLDAIVPAVKKLKILSY
Consider B5, for which, in experiment [1], the binding entry is “binds”.
